No constants are given. Whether binding was seen depends on the method and setting. Some results given as binding are weak or reduced against the parent protein; the word gives no strength.
Experiments:
[1] = target: human TFPI K1 + K2 (human) (UniProt P10646); experiment: Western blots and ELISA
[2] = target: human TFPI K1 + K2 + K3 (human) (UniProt P10646); experiment: Western blots and ELISA
[3] = target: mouse tissue factor pathway inhibitor (TFPI) (mouse) (UniProt O54819); experiment: ELISA, coated mouse TFPI
[4] = target: human tissue factor pathway inhibitor (TFPI) (human) (UniProt P10646); experiment: ELISA, Fab lysate on coated human TFPI

By UniProt entry, the sequences of proteins in these tests, tags left out. Where a name states a change or a piece, a line headed by the entry shows the natural chain unless it says otherwise. Residues count along the entry.
UniProt P10646: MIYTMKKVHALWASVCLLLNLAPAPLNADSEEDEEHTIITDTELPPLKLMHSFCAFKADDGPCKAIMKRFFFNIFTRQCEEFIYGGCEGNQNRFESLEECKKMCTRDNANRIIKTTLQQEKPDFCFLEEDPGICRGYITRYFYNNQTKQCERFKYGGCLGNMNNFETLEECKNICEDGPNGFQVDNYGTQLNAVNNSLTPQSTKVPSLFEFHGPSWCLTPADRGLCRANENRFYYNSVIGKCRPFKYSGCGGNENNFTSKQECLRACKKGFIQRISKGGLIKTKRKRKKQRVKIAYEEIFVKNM
human tissue factor pathway inhibitor (TFPI): residues 29-304 of P10646
human TFPI K1 + K2 + K3: residues 29-270 of P10646
human TFPI K1 + K2: residues 29-189 of P10646
UniProt O54819, residues 29-289: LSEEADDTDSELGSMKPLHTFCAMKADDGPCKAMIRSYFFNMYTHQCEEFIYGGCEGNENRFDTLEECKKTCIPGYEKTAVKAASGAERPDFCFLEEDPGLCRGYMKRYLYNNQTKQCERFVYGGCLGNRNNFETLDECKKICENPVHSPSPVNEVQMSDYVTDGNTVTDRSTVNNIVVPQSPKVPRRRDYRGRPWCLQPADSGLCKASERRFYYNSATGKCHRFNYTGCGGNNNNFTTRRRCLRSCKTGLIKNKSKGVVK

binding [3]	further results	Binder
–	binding [1]: binds; binding [2]: binds	TP-3C2 chimeric IgG (antibody, V domains shown) VH: QVQLQQSGPGLVKPSQTLSLTCAISGDSVSSSSAAWSWIRQSPGRGLEWLGMIYYRSKWYNHYAVSVKSRITINPDTSKNQFSLQLNSVTPEDTAVYYCARGGSGVMDVWGQGTLVTVSS VL: DIQMTQSPSSLSASVGDRVTITCRASQSITNYLNWYQQKPGKAPKLLIYDVSNLQSGVPSRFSGSGSGTDFTLTISSLQPEDFAVYYCQQYSGYPLTFGQGTKVEIKR
–	binding [1]: binds; binding [2]: binds	TP-3G1 chimeric IgG (antibody, V domains shown) VH: QVQLQQSGPGLVKPSQTLSLTCAISGDSVSSNSGGWGWIRQSPGRGLEWLGLIYYRSKWYNAYAVSVKSRITINPDTSKNQFSLQLNSVTPEDTAVYYCARYLGSNFYVYSDVWGQGTLVTVSS VL: DIQMTQSPSSLSASVGDRVTITCRASQGISSYLHWYQQKPGKAPKLLIYGASTLQSGVPSRFSGSGSGTDFTLTISSLQPEDFATYYCQQQNGYPFTFGQGTKVEIKR
–	binding [1]: binds; binding [2]: binds	TP-4B7 chimeric IgG (antibody, V domains shown) VH: QVQLQQSGPGLVKPSQTLSLTCAISGDSVSSNSAAWSWIRQSPGRGLEWLGIIYKRSKWYNDYAVSVKSRITINPDTSKNQFSLQLNSVTPEDTAVYYCARWHSDKHWGFDYWGQGTLVTVSS VL: DIVMTQSPLSLPVTPGEPASISCRSSQSLVFSDGNTYLNWYLQKPGQSPQLLIYKGSNRASGVPDRFSGSGSGTDFTLKISRVEAEDVGVYYCQQYDSYPLTFGQGTKVEIKR
–	binding [1]: binds; binding [2]: binds	TP-2A8-IgG (antibody, V domains shown) VH: QVQLVESGGGLVQPGGSLRLSCAASGFTFRSYGMSWVRQAPGKGLEWVSSIRGSSSSTYYADSVKGRFTISRDNSKNTLYLQMNSLRAEDTAVYYCARKYRYWFDYWGQGTLVTVSS VL: DIELTQPPSVSVAPGQTARISCSGDNLRNYYAHWYQQKPGQAPVVVIYYDNNRPSGIPERFSGSNSGNTATLTISGTQAEDEADYYCQSWDDGVPVFGGGTKLTVLG
–	binding [1]: binds; binding [2]: binds	TP-2B3 chimeric IgG (antibody, V domains shown) VH: QVQLQQSGPGLVKPSQTLSLTCAISGDSVSSNSAAWGWIRQSPGRGLEWLGMIYYRSKWYNSYAVSVKSRITINPDTSKNQFSLQLNSVTPEDTAVYYCARTMSKYGGPGMDVWGQGTLVTVSS VL: DIVLTQSPATLSLSPGERATLSCRASQNIGSNYLAWYQQKPGQAPRLLIYGASTRATGVPARFNGSGSGTDFTLTISSLEPEDFAVYYCQQLNSIPVTFGQGTKVEIKR
binds	binding [4]: binds	TP-2A5.1 Fab (Fab, V domains shown) VH: QVQLVESGGGLVQPGGSLRLSCAASGFTFSSYGSWVRQAPGKGLEWVSVISGSGSSTYYADSVKGRFTISRDNSKNTLYLQMNSLRAEDTAVYYCARVNISTHFDVWGQGTLVTVSS VL: DIELTQPPSVSVAPGQTARISCSGDNIPEKYVHWYQQKPGQAPVLVIHGDNNRPSGIPERFSGSNSGNTATLTISGTQAEDEADYYCQSFDAGSYFVFGGGTKLTVLG
–	binding [4]: binds	TP-3F1 Fab (Fab, V domains shown) VH: QVQLVQSGAEVKKPGESLKISCKGSGYSFTDYWIGWVRQMPGKGLEWMGIIQPSDSDTNYSPSFQGQVTISADKSISTAYLQWSSLKASDTAMYYCARFMWWGKYDSGFDVWGQGTLVTVSS VL: DIELTQPPSVSVAPGQTARISCSGDNIGSYFASWYQQKPGQAPVLVIYDDSNRPSGIPERFSGSNSGNTATLTISGTQAEDEADYYCEGSNVFGGGTKLTVLG
binds	–	TP-2A2 Fab (Fab, V domains shown) VH: QVQLVESGGGLVQPGGSLRLSCAASGFTFSNNAMNWVRQAPGKGLEWVSTISYDGSNTYYADSVKGRFTISRDNSKNTLYLQMNSLRAEDTAVYYCARQAGGWTYSYTDVWGQGTLVTVSS VL: DIELTQPPSVSVAPGQTARISCSGDNIRTYYVHWYQQKPGQAPVVVIYGDSKRPSGIPERFSGSNSGNTATLTISGTQAEDEADYYCQSYDSEADSEVFGGGTKLTVLG
binds	–	TP-2A8 Fab (Fab, V domains shown) VH: QVQLVESGGGLVQPGGSLRLSCAASGFTFRSYGMSWVRQAPGKGLEWVSSIRGSSSSTYYADSVKGRFTISRDNSKNTLYLQMNSLRAEDTAVYYCARKYRYWFDYWGQGTLVTVSS VL: DIELTQPPSVSVAPGQTARISCSGDNLRNYYAHWYQQKPGQAPVVVIYYDNNRPSGIPERFSGSNSGNTATLTISGTQAEDEADYYCQSWDDGVPVFGGGTKLTVLG
binds	–	TP-2B3 Fab (Fab, V domains shown) VH: QVQLQQSGPGLVKPSQTLSLTCAISGDSVSSNSAAWGWIRQSPGRGLEWLGMIYYRSKWYNSYAVSVKSRITINPDTSKNQFSLQLNSVTPEDTAVYYCARTMSKYGGPGMDVWGQGTLVTVSS VL: DIVLTQSPATLSLSPGERATLSCRASQNIGSNYLAWYQQKPGQAPRLLIYGASTRATGVPARFNGSGSGTDFTLTISSLEPEDFAVYYCQQLNSIPVTFGQGTKVEIKR
binds	–	TP-2C7 Fab (Fab, V domains shown) VH: QVQLQQSGPGLVKPSQTLSLTCAISGDSVSSNSAAWGWIRQSPGRGLEWLGIIYYRSKWYNHYAVSVKSRITINPDTSKNQFSLQLNSVTPEDTAVYYCARSNWSGYFDYWGQGTLVTVSS VL: DIQMTQSPSSLSASVGDRVTITCRASQDIRNNLAWYQQKPGKAPKLLIYAASSLQSGVPSRFSGSGSGTDFTLTISSLQPEDFAVYYCQQRNGFPLTFGQGTKVEIKR
binds	–	TP-2E5 Fab (Fab, V domains shown) VH: QVQLQQSGPGLVKPSQTLSLTCAISGDSVSSNSAAWSWIRQSPGRGLEWLGMIFYRSKWNNDYAVSVKSRITINPDTSKNQFSLQLNSVTPEDTAVYYCARVNANGYYAYVDLWGQGTLVTVSS VL: DIQMTQSPSSLSASVGDRVTITCRASQPIYNSLSWYQQKPGKAPKLLIYGVSNLQSGVPSRFSGSGSGTDFTLTISSLQPEDFAVYYCLQVDNLPITFGQGTKVEIKR
binds	–	TP-2G6 Fab (Fab, V domains shown) VH: QVQLQQSGPGLVKPSQTLSLTCAISGDSVSSSSAAWSWIRQSPGRGLEWLGIIYYRSKWYNDYAVSVKSRITINPDTSKNQFSLQLNSVTPEDTAVYYCARHSMVGFDVWGQGTLVTVSS VL: DIVLTQSPATLSLSPGERATLSCRASQYVTSSYLAWYQQKPGQAPRLLIYGSSRATGVPARFSGSGSGTDFTLTISSLEPEDFATYYCQQYSSSPITFGQGTKVEIKR
binds	–	TP-2G9 Fab (Fab, V domains shown) VH: QVQLVESGGGLVQPGGSLRLSCAASGFTFNSYAMTWVRQAPGKGLEWVSAIKSDGSNTYYADSVKGRFTISRDNSKNTLYLQMNSLRAEDTAVYYCARNDSGWFDVWGQGTLVTVSS VL: DIALTQPASVSGSPGQSITISCTGTSSDLGGFNTVSWYQQHPGKAPKLMIYSVSSRPSGVSNRFSGSKSGNTASLTISGLQAEDEADYYCQSYDLNNLVFGGGTKLTVLG
binds	–	TP-3A4 Fab (Fab, V domains shown) VH: QVQLVESGGGLVQPGGSLRLSCAASGFTFSSYWMHWVRQAPGKGLEWVSSISYDSSNTYYADSVKGRFTISRDNSKNTLYLQMNSLRAEDTAVYYCARYGGMDYWGQGTLVTVSS VL: DIELTQPPSVSVAPGQTARISCSGDNLRDKYASWYQQKPGQAPVLVIYSKSERPSGIPERFSGSNSGNTATLTISGTQAEDEADYYCSSYTLNPNLNYVFGGGTKLTVLG
binds	–	TP-3B4 Fab (Fab, V domains shown) VH: QVQLQQSGPGLVKPSQTLSLTCAISGDSVSSNGAAWGWIRQSPGRGLEWLGHIYYRSKWYNSYAVSVKSRITINPDTSKNQFSLQLNSVTPEDTAVYYCARWGGIHDGDIYFDYWGQGTLVTVSS VL: DIQMTQSPSSLSASVGDRVTITCRASQNISNYLNWYQQKPGKAPKLLIYGTSSLQSGVPSRFSGSGSGTDFTLTISSLQPEDFAVYYCQQYGNNPTTFGQGTKVEIKR
binds	–	TP-3C1 Fab (Fab, V domains shown) VH: QVQLVESGGGLVQPGGSLRLSCAASGFTFSSYSMHWVRQAPGKGLEWVSGISYSSSFTYYADSVKGRFTISRDNSKNTLYLQMNSLRAEDTAVYYCARALGGGVDYWGQGTLVTVSS VL: DIALTQPASVSGSPGQSITISCTGTSSDLGGFNTVSWYQQHPGKAPKLMIYSVSSRPSGVSNRFSGSKSGNTASLTISGLQAEDEADYYCQSYDLNNLVFGGGTKLTVLG
binds	–	TP-3C2 Fab (Fab, V domains shown) VH: QVQLQQSGPGLVKPSQTLSLTCAISGDSVSSSSAAWSWIRQSPGRGLEWLGMIYYRSKWYNHYAVSVKSRITINPDTSKNQFSLQLNSVTPEDTAVYYCARGGSGVMDVWGQGTLVTVSS VL: DIQMTQSPSSLSASVGDRVTITCRASQSITNYLNWYQQKPGKAPKLLIYDVSNLQSGVPSRFSGSGSGTDFTLTISSLQPEDFAVYYCQQYSGYPLTFGQGTKVEIKR
binds	–	TP-3G1 Fab (Fab, V domains shown) VH: QVQLQQSGPGLVKPSQTLSLTCAISGDSVSSNSGGWGWIRQSPGRGLEWLGLIYYRSKWYNAYAVSVKSRITINPDTSKNQFSLQLNSVTPEDTAVYYCARYLGSNFYVYSDVWGQGTLVTVSS VL: DIQMTQSPSSLSASVGDRVTITCRASQGISSYLHWYQQKPGKAPKLLIYGASTLQSGVPSRFSGSGSGTDFTLTISSLQPEDFATYYCQQQNGYPFTFGQGTKVEIKR
binds	–	TP-3G3 Fab (Fab, V domains shown) VH: QVQLVESGGGLVQPGGSLRLSCAASGFTFSSYSMSWVRQAPGKGLEWVSSISSSSSNTYYGDSVKGRFTISRDNSKNTLYLQMNSLRAEDTAVYYCARMHYKGMDIWGQGTLVTVSS VL: DIQMTQSPSSLSASVGDRVTITCRASQNIHSHLNWYQQKPGKAPKLLIYDASSLQSGVPSRFSGSGSGTDFTLTISSLQPEDFAVYYCQQYYDYPLTFGQGTKVEIKR
binds	–	TP-4B7 Fab (Fab, V domains shown) VH: QVQLQQSGPGLVKPSQTLSLTCAISGDSVSSNSAAWSWIRQSPGRGLEWLGIIYKRSKWYNDYAVSVKSRITINPDTSKNQFSLQLNSVTPEDTAVYYCARWHSDKHWGFDYWGQGTLVTVSS VL: DIVMTQSPLSLPVTPGEPASISCRSSQSLVFSDGNTYLNWYLQKPGQSPQLLIYKGSNRASGVPDRFSGSGSGTDFTLKISRVEAEDVGVYYCQQYDSYPLTFGQGTKVEIKR
